For at least one entry, the source does not settle the construct or the ends of the probe. Results from cells or extracts need not show a direct contact. For some of these results: No signal at the amounts used counts as a negative. For some of these results: At least one verdict was read from the data and is not stated in words by the source.
Tests used:
[1] = system: Sox9 (SpSox9) (Scylla paramamosain); experiment: competition with a labelled probe; settings: 100-fold unlabeled SpTF-mut vs biotin SpTF-wt, eyestalk nuclear extract, no antibody in this assay; LightShift Chemiluminescent EMSA Kit (binding buffer, salt, pH, temperature not stated); 6% polyacrylamide gel, 1x TBE, 100 V, 1 h; protein in an extract; label: none (unlabeled competitor)
[2] = system: Oct4 (SpOct4) (Scylla paramamosain); experiment: competition with a labelled probe; settings: 100-fold unlabeled SpTF-mut vs biotin SpTF-wt, eyestalk nuclear extract, no antibody in this assay; LightShift Chemiluminescent EMSA Kit (binding buffer, salt, pH, temperature not stated); 6% polyacrylamide gel, 1x TBE, 100 V, 1 h; protein in an extract; label: none (unlabeled competitor)
[3] = system: Sox9 (SpSox9) (Scylla paramamosain); experiment: EMSA supershift; settings: eyestalk nuclear extract, anti-Sox9; LightShift Chemiluminescent EMSA Kit (binding buffer, salt, pH, temperature not stated); 6% polyacrylamide gel, 1x TBE, 100 V, 1 h; protein in an extract
[4] = system: Oct4 (SpOct4) (Scylla paramamosain); experiment: EMSA supershift; settings: eyestalk nuclear extract, anti-Oct4; LightShift Chemiluminescent EMSA Kit (binding buffer, salt, pH, temperature not stated); 6% polyacrylamide gel, 1x TBE, 100 V, 1 h; protein in an extract

Sequence | binding result [1] | binding result [2] | binding result [3] | binding result [4]
GGCATGGAACCGGGCAGAAATATAAAGTGCATGAGATTCTGGTGAAGGAAGGCTTAAGTA (double strand) [SpTF-mut] | no binding | no binding | – | –
GGCATGGTTCCGGGCAGAAATATAAAGTGCATGAGATTCTGGTGAAGGAAGGCTTAAGTA (double strand) [SpTF-wt] | – | – | binds | binds

From PMC7593643
